Laboratory results: PubChem BioAssay AID1053209 (Peter MacCallum Cancer Centre, 2014)
Shown is a random part of about 1,580 deposited reagents. 207 of them (13%) were called active. 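Rows are single siRNAs; four siRNAs per gene were tested, a gene counting as confirmed only when at least two agree.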 The numbers tell different reagents against one gene apart. Further read-outs or replicates are left out here. Reagent sequences are not shown.

Screen: 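Gene losses that combine with doxorubicin to kill mouse bone cancer cells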 (follow-up of hits)
System: mouse primary osteosarcoma cells
Reagents: single siRNA against mouse genes, 25 nM (text also states 40 nM)
Duration: about 120 h (48 h before drug, then 72 h with drug)
Conditions: doxorubicin 100 nM (about IC30-40), added 48 h after transfection, for 72 h
Read-out: 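ATP-based luminescent viability, with or without doxorubicin, relative to non-targeting control NT1, mean of two replicates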
Direction: viability with doxorubicin, vs NT1: higher = more viable cells under doxorubicin; viability without drug, vs NT1: higher = more viable cells without drug
Rule for the call: 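Counted as active (class LC dox) if viability falls to 0.7 of NT1 or below under doxorubicin but stays within 0.7 to 1.1 without drug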

Ikzf2 #1
- combined effect class: normal viability with and without drug
- viability with doxorubicin, vs NT1: 1.01
- viability without drug, vs NT1: 0.96
- Call: inactive

Ikzf2 #2
- combined effect class: normal viability with and without drug
- viability with doxorubicin, vs NT1: 0.92
- viability without drug, vs NT1: 1.09
- Call: inactive

Ikzf2 #3
- combined effect class: normal viability with and without drug
- viability with doxorubicin, vs NT1: 1.02
- viability without drug, vs NT1: 1
- Call: inactive

Ikzf2 #4
- combined effect class: low viability only with doxorubicin; normal without drug
- viability with doxorubicin, vs NT1: 0.4
- viability without drug, vs NT1: 0.78
- Call: active

Cse1l #1
- combined effect class: low viability with and without drug
- viability with doxorubicin, vs NT1: 0.44
- viability without drug, vs NT1: 0.68
- Call: inactive

Cse1l #2
- combined effect class: low viability with and without drug
- viability with doxorubicin, vs NT1: 0.17
- viability without drug, vs NT1: 0.36
- Call: inactive

Cse1l #3
- combined effect class: normal viability with and without drug
- viability with doxorubicin, vs NT1: 0.92
- viability without drug, vs NT1: 0.92
- Call: inactive

Cse1l #4
- combined effect class: low viability only with doxorubicin; normal without drug
- viability with doxorubicin, vs NT1: 0.68
- viability without drug, vs NT1: 0.88
- Call: active

Rpl32 #1
- combined effect class: low viability with and without drug
- viability with doxorubicin, vs NT1: 0.44
- viability without drug, vs NT1: 0.52
- Call: inactive

Rpl32 #2
- combined effect class: low viability with and without drug
- viability with doxorubicin, vs NT1: 0.18
- viability without drug, vs NT1: 0.22
- Call: inactive

Rpl32 #3
- combined effect class: low viability with and without drug
- viability with doxorubicin, vs NT1: 0.3
- viability without drug, vs NT1: 0.62
- Call: inactive

Rpl32 #4
- combined effect class: low viability with and without drug
- viability with doxorubicin, vs NT1: 0.22
- viability without drug, vs NT1: 0.34
- Call: inactive

E2f5 #1
- combined effect class: normal viability with and without drug
- viability with doxorubicin, vs NT1: 1.04
- viability without drug, vs NT1: 0.9
- Call: inactive

E2f5 #2
- combined effect class: normal viability with and without drug
- viability with doxorubicin, vs NT1: 0.94
- viability without drug, vs NT1: 1.04
- Call: inactive

E2f5 #3
- combined effect class: high viability only with doxorubicin
- viability with doxorubicin, vs NT1: 1.1
- viability without drug, vs NT1: 1.08
- Call: inactive

E2f5 #4
- combined effect class: normal viability with and without drug
- viability with doxorubicin, vs NT1: 0.96
- viability without drug, vs NT1: 0.95
- Call: inactive

Rpl11 #1
- combined effect class: low viability with and without drug
- viability with doxorubicin, vs NT1: 0.19
- viability without drug, vs NT1: 0.46
- Call: inactive

Rpl11 #2
- combined effect class: normal viability with and without drug
- viability with doxorubicin, vs NT1: 0.92
- viability without drug, vs NT1: 1.01
- Call: inactive

Rpl11 #3
- combined effect class: low viability with and without drug
- viability with doxorubicin, vs NT1: 0.28
- viability without drug, vs NT1: 0.38
- Call: inactive

Rpl11 #4
- combined effect class: normal viability with and without drug
- viability with doxorubicin, vs NT1: 1.06
- viability without drug, vs NT1: 1.02
- Call: inactive

Bahcc1 #1
- combined effect class: normal viability with and without drug
- viability with doxorubicin, vs NT1: 1.06
- viability without drug, vs NT1: 1.06
- Call: inactive

Bahcc1 #2
- combined effect class: normal viability with and without drug
- viability with doxorubicin, vs NT1: 0.89
- viability without drug, vs NT1: 0.97
- Call: inactive

Bahcc1 #3
- combined effect class: normal viability with and without drug
- viability with doxorubicin, vs NT1: 1.02
- viability without drug, vs NT1: 1.02
- Call: inactive

Bahcc1 #4
- combined effect class: normal viability with and without drug
- viability with doxorubicin, vs NT1: 1.06
- viability without drug, vs NT1: 1.04
- Call: inactive

Reagents listed so far marked active (2):
Ikzf2 #4
- combined effect class: low viability only with doxorubicin; normal without drug
- viability with doxorubicin, vs NT1: 0.4
- viability without drug, vs NT1: 0.78
- Call: active

Cse1l #4
- combined effect class: low viability only with doxorubicin; normal without drug
- viability with doxorubicin, vs NT1: 0.68
- viability without drug, vs NT1: 0.88
- Call: active
